Results taken from the supplement of paper PMC10849652.
The other results are listed elsewhere or left out.

Sequences of proteins named here, by UniProt entry; tags and fusion partners are left off. A change or cut given only in a name is not applied to a line headed by its entry.
UniProt O75882: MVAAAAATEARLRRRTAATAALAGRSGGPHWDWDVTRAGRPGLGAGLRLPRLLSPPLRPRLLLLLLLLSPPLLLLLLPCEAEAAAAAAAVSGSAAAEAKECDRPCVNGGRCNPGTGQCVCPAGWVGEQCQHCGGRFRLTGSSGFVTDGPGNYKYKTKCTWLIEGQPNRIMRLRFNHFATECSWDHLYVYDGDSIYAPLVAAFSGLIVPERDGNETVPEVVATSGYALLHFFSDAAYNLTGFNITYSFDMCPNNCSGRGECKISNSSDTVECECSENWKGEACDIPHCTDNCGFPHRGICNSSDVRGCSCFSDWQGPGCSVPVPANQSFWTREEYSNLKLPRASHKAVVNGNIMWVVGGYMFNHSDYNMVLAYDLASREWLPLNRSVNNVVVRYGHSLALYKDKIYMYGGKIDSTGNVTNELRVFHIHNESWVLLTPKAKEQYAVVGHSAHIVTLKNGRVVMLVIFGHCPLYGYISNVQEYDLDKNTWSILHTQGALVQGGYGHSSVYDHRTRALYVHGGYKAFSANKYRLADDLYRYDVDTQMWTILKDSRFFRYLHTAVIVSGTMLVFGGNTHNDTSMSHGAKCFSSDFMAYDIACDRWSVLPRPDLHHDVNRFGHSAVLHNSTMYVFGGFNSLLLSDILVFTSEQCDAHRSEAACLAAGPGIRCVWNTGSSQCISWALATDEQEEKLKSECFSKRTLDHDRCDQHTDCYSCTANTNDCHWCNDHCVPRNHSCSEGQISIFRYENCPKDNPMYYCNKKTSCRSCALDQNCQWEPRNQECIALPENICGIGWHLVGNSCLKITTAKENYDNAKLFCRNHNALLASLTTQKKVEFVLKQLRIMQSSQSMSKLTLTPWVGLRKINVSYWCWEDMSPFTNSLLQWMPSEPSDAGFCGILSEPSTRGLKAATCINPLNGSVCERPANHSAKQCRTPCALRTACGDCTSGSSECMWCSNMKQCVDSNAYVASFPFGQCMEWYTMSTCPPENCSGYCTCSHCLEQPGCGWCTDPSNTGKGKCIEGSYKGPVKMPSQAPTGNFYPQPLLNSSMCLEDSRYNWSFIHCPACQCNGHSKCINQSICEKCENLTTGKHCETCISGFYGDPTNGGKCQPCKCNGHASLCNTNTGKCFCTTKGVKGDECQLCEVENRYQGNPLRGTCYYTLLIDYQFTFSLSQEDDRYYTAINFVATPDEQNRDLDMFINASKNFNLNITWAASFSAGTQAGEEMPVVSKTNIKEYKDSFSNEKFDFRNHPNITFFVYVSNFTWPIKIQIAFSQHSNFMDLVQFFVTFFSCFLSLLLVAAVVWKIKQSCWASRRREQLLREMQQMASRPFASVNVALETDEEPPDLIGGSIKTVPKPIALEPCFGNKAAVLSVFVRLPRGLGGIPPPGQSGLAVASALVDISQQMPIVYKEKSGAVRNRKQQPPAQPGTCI
UniProt Q9H1I8: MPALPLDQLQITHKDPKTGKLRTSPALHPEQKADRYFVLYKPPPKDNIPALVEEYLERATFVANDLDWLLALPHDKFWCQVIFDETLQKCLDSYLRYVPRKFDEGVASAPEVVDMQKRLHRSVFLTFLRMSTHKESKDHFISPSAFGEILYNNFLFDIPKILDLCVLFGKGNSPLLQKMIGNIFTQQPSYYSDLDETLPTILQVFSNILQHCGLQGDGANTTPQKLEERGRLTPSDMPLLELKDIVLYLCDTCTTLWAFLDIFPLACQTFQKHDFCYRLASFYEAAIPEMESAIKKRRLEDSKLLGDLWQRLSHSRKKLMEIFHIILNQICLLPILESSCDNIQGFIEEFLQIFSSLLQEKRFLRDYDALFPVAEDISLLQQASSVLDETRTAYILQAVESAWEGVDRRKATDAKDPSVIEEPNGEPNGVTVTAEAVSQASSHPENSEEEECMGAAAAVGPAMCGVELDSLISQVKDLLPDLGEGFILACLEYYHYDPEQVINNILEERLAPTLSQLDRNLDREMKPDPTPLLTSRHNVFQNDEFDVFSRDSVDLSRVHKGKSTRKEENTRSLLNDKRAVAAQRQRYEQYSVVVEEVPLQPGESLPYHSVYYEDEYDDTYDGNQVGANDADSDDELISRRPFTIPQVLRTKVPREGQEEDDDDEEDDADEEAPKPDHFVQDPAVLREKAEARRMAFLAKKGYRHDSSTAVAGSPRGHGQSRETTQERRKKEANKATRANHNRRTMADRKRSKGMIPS
UniProt Q5U623: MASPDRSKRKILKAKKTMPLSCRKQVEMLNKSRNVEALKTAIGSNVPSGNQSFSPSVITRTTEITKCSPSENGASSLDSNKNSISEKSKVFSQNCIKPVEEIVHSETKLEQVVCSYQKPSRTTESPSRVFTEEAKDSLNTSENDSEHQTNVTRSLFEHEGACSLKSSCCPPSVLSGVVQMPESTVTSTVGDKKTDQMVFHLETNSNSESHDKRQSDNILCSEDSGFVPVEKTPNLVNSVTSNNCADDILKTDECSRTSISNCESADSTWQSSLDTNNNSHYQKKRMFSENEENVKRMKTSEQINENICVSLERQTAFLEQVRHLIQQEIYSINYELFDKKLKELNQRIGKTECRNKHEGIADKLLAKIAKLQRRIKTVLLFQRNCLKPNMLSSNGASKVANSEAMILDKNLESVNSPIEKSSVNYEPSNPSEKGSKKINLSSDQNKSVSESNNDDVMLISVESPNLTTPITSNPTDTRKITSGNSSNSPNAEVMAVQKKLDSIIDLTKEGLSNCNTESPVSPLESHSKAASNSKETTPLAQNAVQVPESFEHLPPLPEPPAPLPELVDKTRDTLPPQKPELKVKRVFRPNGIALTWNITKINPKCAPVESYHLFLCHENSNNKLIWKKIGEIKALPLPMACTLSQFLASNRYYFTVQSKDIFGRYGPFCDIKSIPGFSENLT
UniProt Q6Y288: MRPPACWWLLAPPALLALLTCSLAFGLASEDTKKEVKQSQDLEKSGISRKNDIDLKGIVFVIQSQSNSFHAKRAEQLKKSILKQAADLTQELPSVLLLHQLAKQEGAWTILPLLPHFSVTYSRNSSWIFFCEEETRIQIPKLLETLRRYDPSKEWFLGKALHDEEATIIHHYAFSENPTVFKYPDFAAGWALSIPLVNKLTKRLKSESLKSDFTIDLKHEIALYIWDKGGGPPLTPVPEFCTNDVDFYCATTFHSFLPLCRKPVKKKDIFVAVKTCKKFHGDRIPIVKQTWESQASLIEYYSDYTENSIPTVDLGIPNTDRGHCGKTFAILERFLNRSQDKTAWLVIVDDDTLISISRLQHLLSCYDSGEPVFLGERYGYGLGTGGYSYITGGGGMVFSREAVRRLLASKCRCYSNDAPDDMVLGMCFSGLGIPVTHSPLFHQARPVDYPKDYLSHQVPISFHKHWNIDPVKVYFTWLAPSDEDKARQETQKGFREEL
UniProt Q8NHH9: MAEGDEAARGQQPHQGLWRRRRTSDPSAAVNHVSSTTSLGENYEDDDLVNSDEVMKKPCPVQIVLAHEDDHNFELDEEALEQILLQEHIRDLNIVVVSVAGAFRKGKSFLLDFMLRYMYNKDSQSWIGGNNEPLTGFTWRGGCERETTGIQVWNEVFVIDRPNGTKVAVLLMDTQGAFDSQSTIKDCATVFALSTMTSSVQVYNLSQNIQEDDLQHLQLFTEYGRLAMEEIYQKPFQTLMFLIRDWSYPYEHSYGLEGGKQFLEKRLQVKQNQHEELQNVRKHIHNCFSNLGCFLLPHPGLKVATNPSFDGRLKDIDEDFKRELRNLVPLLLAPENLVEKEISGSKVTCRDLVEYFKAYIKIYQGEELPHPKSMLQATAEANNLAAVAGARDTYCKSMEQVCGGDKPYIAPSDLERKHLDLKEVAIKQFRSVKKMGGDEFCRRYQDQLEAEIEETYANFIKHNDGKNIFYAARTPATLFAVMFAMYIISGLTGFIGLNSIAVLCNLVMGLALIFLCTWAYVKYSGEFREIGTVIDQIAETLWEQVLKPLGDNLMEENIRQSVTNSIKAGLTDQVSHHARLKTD
UniProt O43681: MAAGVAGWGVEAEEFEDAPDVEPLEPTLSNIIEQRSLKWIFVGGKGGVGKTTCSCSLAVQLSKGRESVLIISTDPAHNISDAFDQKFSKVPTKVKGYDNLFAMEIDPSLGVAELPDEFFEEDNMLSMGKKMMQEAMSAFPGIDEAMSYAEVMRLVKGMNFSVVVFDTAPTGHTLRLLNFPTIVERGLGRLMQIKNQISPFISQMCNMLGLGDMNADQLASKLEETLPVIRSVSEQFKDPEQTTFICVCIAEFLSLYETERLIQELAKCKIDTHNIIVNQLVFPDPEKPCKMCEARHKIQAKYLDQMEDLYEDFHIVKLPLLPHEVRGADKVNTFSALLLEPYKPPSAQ
UniProt Q13825: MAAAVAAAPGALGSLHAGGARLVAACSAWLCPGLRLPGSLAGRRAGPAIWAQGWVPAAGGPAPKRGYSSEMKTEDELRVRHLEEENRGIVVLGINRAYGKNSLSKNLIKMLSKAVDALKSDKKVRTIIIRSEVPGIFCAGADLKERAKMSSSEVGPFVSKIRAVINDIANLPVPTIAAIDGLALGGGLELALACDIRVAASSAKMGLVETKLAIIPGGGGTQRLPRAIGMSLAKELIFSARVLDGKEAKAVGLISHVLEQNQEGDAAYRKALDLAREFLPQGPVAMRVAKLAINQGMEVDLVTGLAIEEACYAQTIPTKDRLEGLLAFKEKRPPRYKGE
UniProt H3BUF6: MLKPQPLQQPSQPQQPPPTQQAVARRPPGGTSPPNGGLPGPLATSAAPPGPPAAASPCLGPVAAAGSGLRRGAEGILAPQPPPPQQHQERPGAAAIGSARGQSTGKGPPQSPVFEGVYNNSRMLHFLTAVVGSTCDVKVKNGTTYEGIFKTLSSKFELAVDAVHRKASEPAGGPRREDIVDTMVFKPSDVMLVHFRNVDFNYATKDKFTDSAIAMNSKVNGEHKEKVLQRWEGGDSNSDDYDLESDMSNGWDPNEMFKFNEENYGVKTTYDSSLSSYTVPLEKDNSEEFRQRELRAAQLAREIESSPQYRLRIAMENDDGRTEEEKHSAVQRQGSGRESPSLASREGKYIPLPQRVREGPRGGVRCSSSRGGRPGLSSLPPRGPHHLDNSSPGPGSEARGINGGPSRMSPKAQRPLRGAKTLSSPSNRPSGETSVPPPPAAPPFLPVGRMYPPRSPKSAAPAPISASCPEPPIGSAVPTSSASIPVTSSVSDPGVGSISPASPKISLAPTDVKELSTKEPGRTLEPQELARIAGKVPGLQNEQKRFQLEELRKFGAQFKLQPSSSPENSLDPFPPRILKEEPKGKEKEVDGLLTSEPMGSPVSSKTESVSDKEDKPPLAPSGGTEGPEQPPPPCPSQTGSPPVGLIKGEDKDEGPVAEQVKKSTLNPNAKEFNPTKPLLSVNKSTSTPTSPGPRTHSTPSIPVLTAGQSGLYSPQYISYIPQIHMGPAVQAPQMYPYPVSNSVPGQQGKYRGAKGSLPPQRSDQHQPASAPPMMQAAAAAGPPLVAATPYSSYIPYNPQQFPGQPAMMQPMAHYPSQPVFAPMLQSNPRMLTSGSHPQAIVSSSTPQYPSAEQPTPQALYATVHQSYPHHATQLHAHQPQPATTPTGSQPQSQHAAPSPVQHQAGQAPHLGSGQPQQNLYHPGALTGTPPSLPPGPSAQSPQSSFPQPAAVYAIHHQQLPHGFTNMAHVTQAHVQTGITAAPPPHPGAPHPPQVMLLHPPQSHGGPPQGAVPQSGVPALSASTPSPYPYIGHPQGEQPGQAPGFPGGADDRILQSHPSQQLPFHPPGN
UniProt Q00973: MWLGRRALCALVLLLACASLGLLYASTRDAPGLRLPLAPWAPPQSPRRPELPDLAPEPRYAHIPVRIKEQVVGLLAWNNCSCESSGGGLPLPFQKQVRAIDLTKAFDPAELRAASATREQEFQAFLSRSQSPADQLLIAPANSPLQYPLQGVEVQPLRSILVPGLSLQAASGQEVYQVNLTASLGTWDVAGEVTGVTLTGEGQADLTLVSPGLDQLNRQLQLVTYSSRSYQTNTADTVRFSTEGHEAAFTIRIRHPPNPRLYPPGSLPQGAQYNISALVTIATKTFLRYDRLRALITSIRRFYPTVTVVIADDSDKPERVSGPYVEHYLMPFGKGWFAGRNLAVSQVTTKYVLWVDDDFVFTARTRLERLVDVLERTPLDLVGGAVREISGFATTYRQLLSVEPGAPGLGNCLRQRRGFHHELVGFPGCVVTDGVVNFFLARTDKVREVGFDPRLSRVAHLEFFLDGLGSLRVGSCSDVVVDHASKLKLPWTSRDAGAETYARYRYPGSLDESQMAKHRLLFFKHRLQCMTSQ
UniProt P14415, whole entry, looked up: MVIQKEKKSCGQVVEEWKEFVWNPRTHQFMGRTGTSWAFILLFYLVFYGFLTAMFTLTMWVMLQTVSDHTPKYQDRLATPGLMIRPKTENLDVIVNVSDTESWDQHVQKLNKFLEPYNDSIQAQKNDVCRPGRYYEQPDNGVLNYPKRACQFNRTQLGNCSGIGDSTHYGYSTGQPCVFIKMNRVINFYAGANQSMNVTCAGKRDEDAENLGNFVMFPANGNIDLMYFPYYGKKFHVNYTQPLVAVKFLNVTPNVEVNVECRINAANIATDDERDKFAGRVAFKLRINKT

Compound: CC[C@@H]1C(=O)N(C)c2cnc(Nc3ccc(C(=O)N[C@H]4CC[C@H](N5CCN(CC6CC6)CC5)CC4)cc3OC)nc2N1C(C)C [volasertib]
Test: log2 fold change, soluble protein after heating vs DMSO (PISA); higher = thermal stabilisation; K562 lysate, 10 uM; active = over 0.2 and 3.5 SD of the protein, either way, in both replicates (recomputed)
Summary of the method: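 To prepare the extract, K562 pellets were dounce-homogenised in PBS pH 7.4 with 1 mM MgCl2, giving crude material at 1 mg/mL protein. This was treated with 10 μM compound for 30 min, then heated in aliquots for 3 min over 48°C-58°C before pooling and addition of NP-40 to 0.5% at 4°C. Centrifugation at 21,000xg for 90 min left soluble protein in the supernatant, which TMTpro 16plex LC-MS/MS quantified with equalised channel sums. Results are log-two fold changes in thermal stability compared with solvent controls, from duplicates.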

Row | Target | log2 fold change
1 | ATRN (UniProt O75882) | inactive: -0.005
2 | ATP5F1A (UniProt P25705) | inactive: 0.026
3 | ASCC2 (UniProt Q9H1I8) | inactive: -0.024
4 | ASL (UniProt P04424) | inactive: 0.016
5 | ATF7IP2 (UniProt Q5U623) | inactive: 0.083
6 | B3GLCT (UniProt Q6Y288) | inactive: -0.035
7 | ATL2 (UniProt Q8NHH9) | inactive: -0.047
8 | ASPM (UniProt Q8IZT6) | inactive: 0.011
9 | ATE1 isoform 2 (UniProt O95260) | inactive: -0.013
10 | ASNA1 (UniProt O43681) | inactive: -0.02
11 | ATAD1 (UniProt Q8NBU5) | inactive: -0.018
12 | ATP6V0C (UniProt P27449) | inactive: 0.031
13 | ATP7B (UniProt P35670) | inactive: 0.106
14 | ATXN2 (UniProt F8WB05) | inactive: -0.087
15 | AUH (UniProt Q13825) | inactive: -0.093
16 | ATXN2L (UniProt H3BUF6) | inactive: 0.06
17 | AXIN1 (UniProt O15169) | inactive: -0.057
18 | ATRAID isoform 3 (UniProt Q6UW56) | inactive: -0.014
19 | B4GALNT1 (UniProt Q00973) | inactive: 0.058
20 | B3GNT5 (UniProt Q9BYG0) | inactive: -0.055
21 | ATP1B2 (UniProt P14415) | inactive: -0.037

Random excerpt: 2 entries already listed.
Row | Target | log2 fold change
13 | ATP7B (UniProt P35670) | inactive: 0.106
7 | ATL2 (UniProt Q8NHH9) | inactive: -0.047
